According to patent publication US8895504B2, “Amylin derivatives” (priority 2008, dated 2014):
At least one compound was matched to its structure with a doubt left. Some entries repeat one wording, which the source may state once for all of them. *1 amine or outer side, *2 acyl side, *3 side chain or, on linkers, in order; H or OH if unused. Where a SMILES comes first, the peptide text is derived from it. Bridges are numbered along the chain shown (N, C = ends). The star is where a group is joined. C20 diacid = O=C(O)CCCCCCCCCCCCCCCCCCC(=O)*; γGlu = O=C(O)[C@H](CCC(=O)[*:2])N[*:1]; AEEA = NCCOCCOCC(=O)O

Test system: food intake
Assay: Pharmacological Assay (I) - efficacy testing on appetite, ad libitum fed rat model
Format: in vivo, Sprague Dawley (SD) rats
Settings: 30 nmol/kg vs vehicle, ad libitum fed rats, n=5-7, 0-48 hours
In short: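 SD rats, 200-250 g, individually housed on reversed light/dark cycle, ad libitum food and water; single 0.01-3 mg/kg dose ip, po or sc just before lights off, 5-8 rats per dose plus vehicle group. Food intake recorded hourly for 7 h, then at 24 h and sometimes 48 h; Grubbs outliers excluded.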

SMILES	food intake over a period of 48 hours
CC[C@H](C)[C@H](NC(=O)[C@@H]1CCCN1C(=O)CNC(=O)[C@H](Cc1ccccc1)NC(=O)[C@H](CC(N)=O)NC(=O)[C@H](CC(N)=O)NC(=O)[C@H](CO)NC(=O)[C@H](CO)NC(=O)[C@H](Cc1c[nH]cn1)NC(=O)[C@H](Cc1c[nH]cn1)NC(=O)[C@H](CC(C)C)NC(=O)[C@H](Cc1ccccc1)NC(=O)[C@H](CC(N)=O)NC(=O)[C@H](C)NC(=O)[C@H](CC(C)C)NC(=O)[C@H](CCCNC(=N)N)NC(=O)[C@H](CCC(N)=O)NC(=O)[C@@H](NC(=O)[C@H](C)NC(=O)[C@@H]1CSSC[C@H](NC(=O)COCCOCCNC(=O)CC[C@H](NC(=O)CCCCCCCCCCCCCCCCCCC(=O)O)C(=O)O)C(=O)N[C@@H](CC(N)=O)C(=O)N[C@@H]([C@@H](C)O)C(=O)N[C@@H](C)C(=O)N[C@@H]([C@@H](C)O)C(=O)N1)[C@@H](C)O)C(=O)N[C@@H](CC(C)C)C(=O)N1CCC[C@H]1C(=O)N1CCC[C@H]1C(=O)N[C@H](C(=O)N[C@@H](CC(N)=O)C(=O)N[C@H](C(=O)NCC(=O)N[C@@H](CO)C(=O)N[C@@H](CC(N)=O)C(=O)N[C@H](C(=O)N[C@@H](Cc1ccc(O)cc1)C(N)=O)[C@@H](C)O)C(C)C)[C@@H](C)O [Example 16, N-alpha-[2-(2-{2-[4-(S)-Carboxy-4-(19-carboxynonadecanoylamino)butyrylamino]ethoxy}ethoxy)acetyl]-[His17]-pramlintide (2-37)] ({C20 diacid-γGlu-AEEA}-CNTATCATQRLANFLHHSSNNFGPILPPTNVGSNTY-NH2; disulfide 1-6)	effectively reducing food intake
CC[C@H](C)[C@H](NC(=O)[C@@H]1CCCN1C(=O)CNC(=O)[C@H](Cc1ccccc1)NC(=O)[C@H](CC(N)=O)NC(=O)[C@H](CC(N)=O)NC(=O)[C@H](CO)NC(=O)[C@H](CO)NC(=O)[C@H](Cc1c[nH]cn1)NC(=O)[C@H](C)NC(=O)[C@H](CC(C)C)NC(=O)[C@H](Cc1ccccc1)NC(=O)[C@H](CC(N)=O)NC(=O)[C@H](C)NC(=O)[C@H](CC(C)C)NC(=O)[C@H](CCCNC(=N)N)NC(=O)[C@H](CCC(N)=O)NC(=O)[C@@H](NC(=O)[C@H](C)NC(=O)[C@@H]1CSSC[C@H](NC(=O)CC[C@H](NC(=O)CCCCCCCCCCCCCCCCCCC(=O)O)C(=O)O)C(=O)N[C@@H](CC(N)=O)C(=O)N[C@@H]([C@@H](C)O)C(=O)N[C@@H](C)C(=O)N[C@@H]([C@@H](C)O)C(=O)N1)[C@@H](C)O)C(=O)N[C@@H](CC(C)C)C(=O)N1CCC[C@H]1C(=O)N1CCC[C@H]1C(=O)N[C@H](C(=O)N[C@@H](CC(N)=O)C(=O)N[C@H](C(=O)NCC(=O)N[C@@H](CO)C(=O)N[C@@H](CC(N)=O)C(=O)N[C@H](C(=O)N[C@@H](Cc1ccc(O)cc1)C(N)=O)[C@@H](C)O)C(C)C)[C@@H](C)O [Example 12, N-alpha-[(S)-4-Carboxy-4-(19-carboxynonadecanoylamino)butyryl]-[Ala17]-pramlintide (2-37)] ({C20 diacid-γGlu}-CNTATCATQRLANFLAHSSNNFGPILPPTNVGSNTY-NH2; disulfide 1-6)	effectively reducing food intake
